{"source": "patent US12097329B2", "about": "“Apparatus to administer drugs to mechanically ventilated patients” (Chiesi Farmaceutici S.p.A., priority 2018, dated 2024)", "experiment": "Aerosol performance by Next Generation Impactor (NGI), drug quantified by HPLC", "assay_type": "physicochemical", "description": "A powder formulation was prepared according to the teaching of Examples 2 and 3 of WO 2013/110632 and loaded in the multi-dose dry powder inhaler described in WO 2016/000983. A ventilator system Monnal T75, available from Air Liquid Medical Systems […], Italy) was used. A Catheter mounth (ID 10 mm, length 17 cm) and an endotracheal catheter (ID 8 mm, length 8.5 cm) were also utilized. Other equipments were standard. The following conditions were set-up: tidal volume: 500 ml; PEEP 5 cmH2O; Flow rate: about 41 l/min; breath frequency: 15 bpm. All tests were performed at room temperature and lung temperature (about 37° C.) with in line humidification (about 75% relative humidity system). The inhaler was connected to the ventilation system through the connector of the invention. The evaluation of the aerosol performance was carried out using the Next Generation Impactor (NGI) according to the conditions reported in the European Pharmacopeia 8.5th Ed 2015, par 2.9.18, pages 309-320. After aerosolization of three doses from the inhaler device, the NGI apparatus was disassembled and the amounts of drug deposited in the stages were recovered by washing with a solvent mixture and then quantified by High-Performance Liquid Chromatography (HPLC).", "key": {"[1]": {"conditions": "BDP + FF 100 + 6 μg/10 mg DPI 37° C. 75% RH T-vol 500, connected to ventilation system through the connector"}, "[2]": {"conditions": "BDP + FF 100 + 6 μg/10 mg DPI - Release"}}, "note": "Counter-ions that a name gives are not always drawn.", "data": [{"smiles": "COc1ccc(CC(C)NCC(O)c2ccc(O)c(NC=O)c2)cc1", "note": "(stereo not drawn) [FF, formoterol fumarate dihydrate]", "values": [{"measurement": "EFPF (extrafine particle fraction)", "setting": "[1]", "result": 27.69, "unit": "% on DD"}, {"measurement": "EFPM (extrafine FPM)", "setting": "[1]", "result": 1.06, "unit": "µg"}, {"measurement": "FPF (fine particle fraction)", "setting": "[1]", "result": 59.19, "unit": "% on DD"}, {"measurement": "EFPF (extrafine particle fraction)", "setting": "[2]", "result": 18.98, "unit": "% on DD"}, {"measurement": "EFPM (extrafine FPM)", "setting": "[2]", "result": 0.88, "unit": "µg"}, {"measurement": "FPF (fine particle fraction)", "setting": "[2]", "result": 62.09, "unit": "% on DD"}]}]}
